PubChem BioAssay AID1508597, Cure First, 2020
Shown is an unselected part of the about 2,100 reagents, in one setting of the screen. 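Calls flag viability under 80% in either arm, not effects specific to rucaparib; the reference for percent is not stated.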 Entries without a mark were called inactive. A reagent listed more than once was tested more than once; the source does not tell the runs apart. Reagent sequences are not shown. The record does not give: the 100% reference.

Test: 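Genes whose silencing sensitises or protects ovarian cancer cells against rucaparib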 (primary screen)
System: human ovarian carcinoma lines grown from tumours: OCI-P5x (papillary serous) and OCI-C5x (clear cell)
Knock-down reagent: siRNA pool against human genes, 1.25 pmol siRNA per well
Duration: 72 h or 96 h, depending on the cell culture
Conditions: rucaparib 20 µM (about IC30) or vehicle, present until read-out
Rucaparib or vehicle: Vehicle
Cell line: OCI-C5x (clear cell)
Read-out: 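Luminescent ATP-based viability assay read 72 or 96 h after transfection, depending on culture, given as normalised percent viability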
Direction: viability, normalised: higher = more viable cells remaining
Active means: 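a well counts as a hit if its normalised viability is under 80 percent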
Meaning of the calls: active = viability under 80%; inactive = viability 80% or more

{"gene knocked down":"TTF1 (transcription termination factor 1)","technical replicate":"1","viability, normalised (%)":"33.8 (active)"}
{"gene knocked down":"TTF1 (transcription termination factor 1)","technical replicate":"2","viability, normalised (%)":"28.8 (active)"}
{"gene knocked down":"TTF1 (transcription termination factor 1)","technical replicate":"3","viability, normalised (%)":"33.8 (active)"}
{"gene knocked down":"MED31 (mediator complex subunit 31)","technical replicate":"1","viability, normalised (%)":"74.9 (active)"}
{"gene knocked down":"MED31 (mediator complex subunit 31)","technical replicate":"2","viability, normalised (%)":"77.7 (active)"}
{"gene knocked down":"MED31 (mediator complex subunit 31)","technical replicate":"3","viability, normalised (%)":"67.7 (active)"}

The list goes on (2 carried over from the part before).
{"gene knocked down":"MED31 (mediator complex subunit 31)","technical replicate":"2","viability, normalised (%)":"77.7 (active)"}
{"gene knocked down":"MED31 (mediator complex subunit 31)","technical replicate":"3","viability, normalised (%)":"67.7 (active)"}
{"gene knocked down":"CSNK1D (casein kinase 1 delta)","technical replicate":"1","viability, normalised (%)":96}
{"gene knocked down":"CSNK1D (casein kinase 1 delta)","technical replicate":"1","viability, normalised (%)":117}
{"gene knocked down":"CSNK1D (casein kinase 1 delta)","technical replicate":"2","viability, normalised (%)":"71.3 (active)"}
{"gene knocked down":"CSNK1D (casein kinase 1 delta)","technical replicate":"2","viability, normalised (%)":"51.4 (active)"}
{"gene knocked down":"CSNK1D (casein kinase 1 delta)","technical replicate":"3","viability, normalised (%)":"49.5 (active)"}
{"gene knocked down":"CSNK1D (casein kinase 1 delta)","technical replicate":"3","viability, normalised (%)":"72.2 (active)"}
